Test results published in PubChem BioAssay AID504834 (National Center for Advancing Translational Sciences (NCATS), 2011).
The whole screen tested about 320,000 compounds, of which about 22,000 (6.9%) were called active. Inconclusive results, whose numbers are uncertain, are shown with a selection of clear calls. Calls come from the whole dose curve; as a rule, active = well fitted inhibition curve with a large enough effect; inconclusive = small, poorly fitted or top-dose-only effect, or another doubt; inactive = no such curve, though single readings can be large or run the other way. Potencies of inconclusive entries are doubtful fits and often do not repeat.

assay: Primary qHTS for delayed death inhibitors of the malarial parasite plastid, 96 hour incubation; conditions: P. falciparum luciferase reporter growth; series mostly up to 28.7 µM
In short: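 Two parasite generations (96 h, 37 C, 5% CO2) of compound exposure in infected erythrocytes (0.05% parasitemia, 2% hematocrit). Luciferase-reporter P. falciparum; decreased luminescence indicates inhibited growth, aimed at apicoplast-acting delayed death.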
% is set by controls: 0 for no effect and ±100 for the full control effect; potency is the fitted concentration of half-maximal effect.

Compound	Potency	activity change, negative = inhibition
O=C(C1CCN(S(=O)(=O)c2cccnc2)CC1)N1CCN(c2ccc(Cl)cc2)CC1	inconclusive: 5.22 µM [inhibitor, partial curve]	
Cc1ccc(CNC(=O)CCSCCC(=O)NCc2ccc(C)cc2)cc1	inconclusive: 10.4 µM [inhibitor, partial curve, poor fit]	
CCN(CC(=O)NC1CCS(=O)(=O)C1)C(=O)c1cc(OC)c(OC)c(OC)c1 (centres undefined)	inactive	
CCn1c(SCc2ccc([N+](=O)[O-])cc2)nnc1C(C)NC(=O)c1ccc(C)cc1 (centres undefined)	active: 10.4 µM	
Cc1cccc(N2C(=O)CC(Sc3ccccc3C(=O)O)C2=O)c1 (centres undefined)	inconclusive: 5.22 µM [inhibitor, partial curve, poor fit]	
C#CCOCCOCCOCCNc1nc(N2CCN(C(=O)[C@H]([C@@H](C)CC)n3cc([C@@H](N)Cc4ccc(O)cc4)nn3)CC2)nc(N2CCN(C(=O)[C@H]([C@@H](C)CC)n3cc([C@@H](N)CC(C)C)nn3)CC2)n1	active: 1.47 µM	
C(=N\Nc1nc2ccccc2[nH]1)/c1ccc2c(c1)OCO2	inconclusive: 0.0104 µM [inhibitor, full curve, poor fit]	
CCCCn1c(SCC(=O)c2c(N)n(C3CC3)c(=O)[nH]c2=O)nc2cc(S(N)(=O)=O)ccc21	inconclusive: 9.28 µM [inhibitor, partial curve]	
O=C1C2C3CC(C(Br)C3Br)C2C(=O)N1c1ccccn1 (centres undefined)	inactive	
COc1cc(NC(=S)NC(=O)c2ccco2)ccc1NC(=O)C(C)C	inconclusive: 1.85 µM [inhibitor, full curve, poor fit]	
COc1ccc2cc(-c3[nH]ncc3CN3CCCC3c3nonc3C)ccc2c1 (centres undefined)	active: 4.65 µM	
O=C(CCS(=O)(=O)c1ccccc1)Nc1nccs1	inconclusive: 14.7 µM [inhibitor, partial curve]	
O=S(=O)(c1cccs1)N1CCC(CO)(Cc2ccc(Cl)cc2)CC1	active: 0.738 µM	
COc1ccc(-n2ncc(C(C)NS(=O)(=O)c3cc(F)ccc3C)c2C)cc1 (centres undefined)	inactive	
CCc1nc2ccc(C(=O)NCCCN3CCN(c4ccc(F)cc4)CC3)cc2nc1CC	inactive	
Cc1ccc2c(c1)/C(=C/c1ccc(F)cc1)C(=O)N2	inactive	
COc1ccc(C2C(CC(=O)O)=C(O)C(=O)N2c2ccccc2)cc1 (centres undefined)	inconclusive: 0.0029 µM [inhibitor, full curve, poor fit]	
COc1ccc(N2CC(C(=O)NCCc3ccc(Cl)cc3)CC2=O)cc1 (centres undefined)	inactive	
CN(C(=S)Nc1ccc(F)cc1)C1(c2ccccc2Cl)CCCCC1=O (centres undefined)	inconclusive: 2.94 µM [inhibitor, full curve]	
Fc1cccc(NC(=S)NCCCN2CCOCC2)c1	inactive	
Cc1cccc(NC(=O)CCS(=O)(=O)c2ccc3c(c2)oc(=O)n3C)c1	active: 8.28 µM	
O=C1CCCC2=C1C(c1ccsc1)CC(=O)N2c1ccccc1F (centres undefined)	inconclusive: 0.294 µM [inhibitor, full curve, poor fit]	
O=C(c1ccc(F)c(S(=O)(=O)N2CCOCC2)c1)N(CCc1ccccc1)Cc1ccccc1	active: 2.62 µM	

As a working copy, some entries already given:
Compound	Potency	activity change, negative = inhibition
CCc1nc2ccc(C(=O)NCCCN3CCN(c4ccc(F)cc4)CC3)cc2nc1CC	inactive	
Cc1ccc2c(c1)/C(=C/c1ccc(F)cc1)C(=O)N2	inactive	
COc1ccc(C2C(CC(=O)O)=C(O)C(=O)N2c2ccccc2)cc1 (centres undefined)	inconclusive: 0.0029 µM [inhibitor, full curve, poor fit]	
COc1ccc(N2CC(C(=O)NCCc3ccc(Cl)cc3)CC2=O)cc1 (centres undefined)	inactive	

Going on with the list.

Compound	Potency	activity change, negative = inhibition
CCOC(=O)c1ccc(-n2c(CN3CCOCC3)nc3ccc([N+](=O)[O-])cc3c2=O)cc1	inconclusive: 18.5 µM [inhibitor, single point]	
O=C(N/N=C/c1ccc(C(=O)O)cc1)C1=NNC(c2ccccc2)(c2ccccc2)C1	inconclusive: 9.28 µM [inhibitor, partial curve, poor fit]	
O=C(CCS(=O)(=O)c1ccc(Br)cc1)NC1CCCC1	inactive	
COCC(=O)n1nc(-c2ccc(C)cc2)nc1NCc1ccc(F)cc1	inactive	
COc1ccc(N2CCN(c3cc(=O)n(Cc4ccc(F)cc4)c(=O)[nH]3)CC2)cc1	inconclusive: 11.7 µM [inhibitor, single point]	
Cc1cc(N)n(C2CCN(C)CC2)n1	inconclusive: 18.5 µM [inhibitor, single point]	
CC(=O)c1ccc(NC(=O)CSc2cn[nH]n2)cc1	inactive	
COc1ccc(N/C=C/C(=O)c2cc(OC)c(OC)c(OC)c2)cc1	inactive	
CCc1ccccc1NC(=O)c1cc(-c2ccc3c(c2)OCO3)on1	inconclusive: 1.65 µM [inhibitor, full curve]	
COc1ccc(CNC(=O)CN2C(=O)COc3ccc(S(=O)(=O)N4CCOCC4)cc32)cc1	inconclusive: 5.22 µM [inhibitor, partial curve]	
CN1CCN(S(=O)(=O)c2ccc(N3CCN(c4ccccc4O)CC3)c([N+](=O)[O-])c2)CC1	inconclusive: 18.5 µM [inhibitor, single point]	
CN(C)c1cccc(C(=O)NC2CCCc3ccccc32)c1 (centres undefined)	inconclusive: 10.4 µM [inhibitor, single point]	
COc1ccc2[nH]c(=O)c(-c3noc(-c4ccccc4)n3)cc2c1	inconclusive: 0.294 µM [inhibitor, full curve, poor fit]	
NC(=O)c1ccsc1NC(=O)c1cc(=O)c2ccccc2o1	inactive	
COc1ccc(NC(=O)CN(C)C(=O)c2cc(-c3ccc(Cl)cc3)nc3ccccc23)cc1	inconclusive: 10.4 µM [inhibitor, partial curve]	
CCOC(=O)C1CCN(C(=O)c2ccccc2NS(=O)(=O)c2ccccc2)CC1	inactive	
Cc1ccc(Cl)cc1N1CCN(CCN)CC1	inconclusive: 10.4 µM [inhibitor, single point]	
COc1ccc(S(=O)(=O)N2CCOCC2)cc1NC(=O)COC(=O)C1CC1C (centres undefined)	inactive	
Cc1ccc(C(=O)NNC(=O)COc2ccc(Cl)cc2C)o1	inactive	
COc1cccc(N2CCN(C(c3ccccn3)c3nnnn3C(C)(C)C)CC2)c1 (centres undefined)	inconclusive: 9.28 µM [inhibitor, single point]	
C=CCn1c(N)c(C(=O)Nc2ccc(C)c(C)c2)c2nc3ccccc3nc21	inconclusive: 0.294 µM [inhibitor, partial curve, poor fit]	
COc1cccc(C(=O)OCC(=O)c2ccc(Br)s2)c1	inconclusive: 14.7 µM [inhibitor, single point]	
COc1ccc(N2CCN(c3ccnc4cc(Cl)ccc34)CC2)cc1	active: 7.38 µM	

Compound	Potency	activity change, negative = inhibition
Cc1ccc(NC(=O)Cc2nc(-c3c[nH]c(C(=O)N4CCCC4)c3)cs2)c(C)c1	inconclusive: 18.5 µM [inhibitor, single point]	
O=C(CNC(=S)N(Cc1ccccc1)Cc1cccnc1)NCCc1ccccc1	inconclusive: 16.5 µM [inhibitor, partial curve, poor fit]	
C/C(CC(=O)Nc1ccc2c(c1)OCCO2)=N\NC(=O)c1cccc(O)c1	inconclusive: 8.28 µM [inhibitor, partial curve, poor fit]	
Cc1nn(CC2CC2)c(=O)n1-c1ccc(Oc2ccccc2)cc1		inactive: 26.1% [at 5.75 µM]
CNCC(O)CN(c1ccccc1)c1ccccc1 (centres undefined)	inactive	
CCc1ccc(NC(=O)c2cccc(C(=O)Nc3ccc(CC)cc3)n2)cc1	inconclusive: 13.1 µM [inhibitor, single point]	
CCCc1cc(=O)oc2cc(C)c(CN3CCCC3)c(O)c12	inconclusive: 1.65 µM [inhibitor, full curve]	
CCN(CC)c1ccc(NC(=O)C2CCCC2)cc1	inconclusive: 18.5 µM [inhibitor, single point]	
O=C(NCc1cccnc1)c1cccnc1-c1nc2ccccc2s1	inconclusive: 0.0828 µM [inhibitor, full curve, poor fit]	
O=C(O)c1ccccc1-c1nnc2c(Cl)cc(C(F)(F)F)cn12	inactive	
CC(C)(C)C(=O)n1nc(-c2ccccc2)oc1=O	inactive	
Cc1ccc(C(=O)CC(=O)c2cccc(F)c2)c(O)c1	inconclusive: 9.28 µM [inhibitor, single point]	
COc1cc(N/N=C/c2ccc(N(C)C)cc2)ncn1	inconclusive: 18.5 µM [inhibitor, single point]	
CCOC(=O)Cn1c2ccccc2n2nc(CCC(=O)O)c(=O)nc12	inconclusive: 18.5 µM [inhibitor, single point]	
O=C(NC1CCN(Cc2ccccc2)CC1)C1CCN(S(=O)(=O)c2ccc(Cl)cc2)CC1	inconclusive: 13.1 µM [inhibitor, partial curve]	
Cc1ccc(-c2nn(-c3ccccc3)cc2C(=O)OCC(=O)Nc2ncc(Cl)cc2Cl)cc1	inconclusive: 18.5 µM [inhibitor, single point]	
COc1ccc(C(=O)/C=C/Nc2ccc(S(=O)(=O)Nc3nc(C)cc(C)n3)cc2)c(OC)c1	inconclusive: 9.28 µM [inhibitor, partial curve]	
COc1ccc(C(=O)NCc2ccc(F)cc2)cc1S(=O)(=O)N1CCCC1	inconclusive: 2.94 µM [inhibitor, partial curve]	
C/C=C(\C)C(=O)NCCN1C2=NC[C@H](C(C)C)N2C[C@H]1Cc1ccc(O)cc1	active: 3.29 µM	
CCOC(=O)N1CCN(C(=O)COc2cccc3c2CCN(Cc2ccccc2F)C3=O)CC1	inconclusive: 10.4 µM [inhibitor, single point]	
CC(C)(C)c1ccc(C(=O)N/C(=C\c2cccs2)C(=O)NCc2ccco2)cc1	active: 8.28 µM	
COc1ccccc1NC(=O)Cn1c2ccccc2c2nc3n(c(=O)c21)CCS3	inactive	
COc1cccc(/C=N/NC(=O)N/N=C/c2cccc(OC)c2O)c1O	inconclusive: 18.5 µM [inhibitor, single point]	
